Data taken from PubChem BioAssay AID540256 (National Center for Advancing Translational Sciences (NCATS), 2011).
Hit rate of the full screen: of about 300,000 compounds, about 3,700 (1.2%) were called active. This list was built around the results that the source calls inconclusive (neither active nor inactive); the mix of calls is not that of the screen. Calls come from the whole dose curve; tested in HEK293 cells. Where the call is inconclusive, the potency comes from a doubtful curve fit.

Experiment: qHTS for Inhibitors of binding or entry into cells for Lassa Virus; note: nearly all actives have a fitted effect of over 50% in size
Conditions: Lassa virus pseudotype entry inhibition, cell reporter; series mostly up to 37.9 µM
Potency is the fitted concentration of half-maximal effect.

Q: Which Potency does the source give for `CCOC(=O)Cc1[nH]nc2c1C(Cc1ccccc1)C(C#N)=C(N)O2` (stereo not drawn) here?
A: Its Potency is inconclusive: 35.5 µM [inhibitor, single point].

Q: With `CCOC(=O)c1c(NC(=O)Cc2cccs2)sc2c1CCCC2` as the molecule, how does the Potency read?
A: Its Potency is inconclusive: 22.4 µM [inhibitor, single point].

Q: Which Potency does the source give for `COc1ccc(C(=O)NC(=S)Nc2ccc(CN3CCCCC3)cc2)cc1Cl` here?
A: The Potency was inconclusive: 35.5 µM [inhibitor, single point].

Q: Which Potency does the source give for `Cc1cc(C)nc(N/N=C/c2cc(C)n(CC(F)(F)F)c2C)n1` here?
A: Its Potency is inconclusive: 18.3 µM [inhibitor, partial curve].

Q: For `COc1ccc(S(=O)(=O)NCc2ccccn2)cc1NC(=O)c1ccc(Cl)cc1`, which Potency is on record?
A: The Potency was inconclusive: 6.31 µM [inhibitor, full curve, poor fit].

Q: Which Potency does the source give for `COc1ccc(N2CCN(C(=O)COC(=O)[C@@H](NC(=O)OCc3ccccc3)C(C)C)CC2)cc1` here?
A: The Potency was inconclusive: 35.5 µM [inhibitor, single point].

Q: With `CC(C)c1cc(NCC2CCCO2)n2c(nc3ccccc32)c1C#N` (stereo not drawn) as the molecule, how does the Potency read?
A: The Potency was inconclusive: 2.06 µM [inhibitor, partial curve].

Q: With `COc1ccc(NC(=O)c2nc3ccccc3s2)cc1` as the molecule, how does the Potency read?
A: Its Potency is inconclusive: 11.2 µM [inhibitor, partial curve, poor fit].

Q: With `Cn1nc(-c2ccc(NCCO)c([N+](=O)[O-])c2)c2ccccc2c1=O` as the molecule, how does the Potency read?
A: Its Potency is inconclusive: 0.891 µM [inhibitor, full curve, poor fit].

Q: For `COc1cc(NC(=O)c2ccc(COCC(F)(F)F)cc2)cc(OC)c1OC`, which Potency is on record?
A: The Potency was inconclusive: 20.6 µM [inhibitor, single point].

Q: With `CCOC(=O)C(NC(=O)CCl)(Nc1sc(C)c(CC)c1C#N)C(F)(F)F` (stereo not drawn) as the molecule, how does the Potency read?
A: Its Potency is inconclusive: 3.16 µM [inhibitor, single point].

Q: Which Potency does the source give for `O=C(Nc1ccc(C(F)(F)F)cc1)OC1CN2CCC1CC2` (stereo not drawn) here?
A: The Potency was “inactive”.

Q: For `CCOC(=O)c1ccccc1NC(=O)CSc1nc2cn(CC)nc2c(=O)n1Cc1ccc(Cl)cc1`, which Potency is on record?
A: The Potency was “inactive”.

Q: Which Potency does the source give for `COc1ccc(/C=N/NC(=O)c2cccc(OC(F)(F)C(F)F)c2)cc1O` here?
A: The Potency was inconclusive: 32.6 µM [inhibitor, partial curve, poor fit].

Q: For `CN1CCC(N(C)C(=O)c2cc(-c3ccc(F)cc3)nc3ccccc23)CC1`, which Potency is on record?
A: The Potency was inconclusive: 20 µM [inhibitor, single point].

Q: With `Cc1onc(-c2ccccc2Cl)c1C(=O)Nc1cccc2cccnc12` as the molecule, how does the Potency read?
A: The Potency was inconclusive: 35.5 µM [inhibitor, single point].

Q: For `CC(C)Oc1ccc(CCc2n[nH]c(=S)n2-c2ccccc2)cc1`, which Potency is on record?
A: Its Potency is inconclusive: 11.2 µM [inhibitor, partial curve, poor fit].

Q: For `CC(C)c1ccc(C2=CC(c3ccc(C(C)C)cc3)n3nnnc3N2)cc1` (stereo not drawn), which Potency is on record?
A: The Potency was inconclusive: 0.562 µM [activator, full curve, poor fit].

Q: For `Cc1cc(C)nc(N(C#N)Cc2ccc(Br)cc2)n1`, which Potency is on record?
A: Its Potency is “inactive”.

Q: Which Potency does the source give for `CC(=O)c1ccc(S(=O)(=O)N2CCn3cccc3C2c2ccc(C)cc2)cc1` (stereo not drawn) here?
A: The Potency was inconclusive: 35.5 µM [inhibitor, partial curve, poor fit].

Q: With `CN(c1cccc(NC(=O)c2ccc(N(C)S(=O)(=O)c3ccccc3)cc2)c1)S(C)(=O)=O` as the molecule, how does the Potency read?
A: Its Potency is inconclusive: 13 µM [inhibitor, partial curve, poor fit].

Q: With `COc1ccc(S(=O)(=O)N2CCN(c3cc(-c4ccccc4)nc4ncnn34)CC2)cc1` as the molecule, how does the Potency read?
A: The Potency was inconclusive: 6.51 µM [inhibitor, single point].

Q: Which Potency does the source give for `CCOCCCNC(=O)c1c(N)n(-c2ccc3c(c2)OCO3)c2nc3ccccc3nc12` here?
A: Its Potency is “inactive”.

Q: Which Potency does the source give for `Cc1cc(NC(=O)CSc2nccn2-c2cccc(C)c2C)no1` here?
A: Its Potency is inconclusive: 35.5 µM [inhibitor, single point].

Q: For `CCc1sc(C(=O)Nc2nccs2)cc1C`, which Potency is on record?
A: Its Potency is inconclusive: 12.6 µM [inhibitor, single point].

Q: With `Cc1ccc(C)c(CN2CCCN(Cc3ccc(F)cc3)S2(=O)=O)c1` as the molecule, how does the Potency read?
A: Its Potency is “inactive”.

Q: For `O=C(NCc1ccco1)c1ccc2c(c1)C(=O)c1ccccc1-2`, which Potency is on record?
A: Its Potency is active: 23.1 µM.

Q: For `Cc1ccc(-c2noc(C(C)NS(=O)(=O)c3ccc(C)cc3)n2)cc1` (stereo not drawn), which Potency is on record?
A: Its Potency is “inactive”.

Q: Which Potency does the source give for `COc1cc(/C=C\C(=O)NCc2ccc3c(c2)cc(C)n3C)cc(OC)c1OC` here?
A: Its Potency is inconclusive: 29.1 µM [inhibitor, single point].

Q: With `COC(=O)CCC(=O)N(CCN(C(=O)CCC(=O)OC)c1ccccc1)c1ccccc1` as the molecule, how does the Potency read?
A: The Potency was “inactive”.

Q: With `CC1(C)Cc2ccccc2C(=NCC(=O)O)N1` as the molecule, how does the Potency read?
A: The Potency was “inactive”.

Q: With `Cc1ccc(C)c(CN2C(=O)c3ccccc3S(=O)(=O)c3ccc(C(=O)N(C)C4CCCCC4)cc32)c1` as the molecule, how does the Potency read?
A: The Potency was “inactive”.

Q: Which Potency does the source give for `CC(C)(C)n1nnnc1C(c1ccc(C(F)(F)F)cc1)N(Cc1ccccc1)Cc1ccco1` (stereo not drawn) here?
A: Its Potency is inconclusive: 15.8 µM [inhibitor, single point].

Q: Which Potency does the source give for `CN(c1ccc(C(=O)Nc2nccs2)cc1)S(=O)(=O)c1ccccc1` here?
A: Its Potency is “inactive”.

Q: For `Cc1ccc(S(=O)(=O)NCCNC(=O)c2cc(OCC(F)(F)F)ccc2OCC(F)(F)F)cc1`, which Potency is on record?
A: The Potency was “inactive”.

Q: For `CC(/C=N/NC(=O)c1ccco1)=C\c1ccccc1`, which Potency is on record?
A: Its Potency is inconclusive: 10 µM [inhibitor, partial curve].

Q: For `O=C(COc1ccccc1)NCCSCc1ccco1`, which Potency is on record?
A: Its Potency is “inactive”.

Q: Which Potency does the source give for `Cc1nc(C)c(-c2ccc(SCC(=O)Nc3ccc(Br)cc3)nn2)s1` here?
A: The Potency was inconclusive: 7.94 µM [inhibitor, partial curve, poor fit].

Q: With `Cc1sc2nc(CC(N)=O)[nH]c(=O)c2c1-c1ccccc1` as the molecule, how does the Potency read?
A: Its Potency is inconclusive: 4.47 µM [inhibitor, partial curve, poor fit].

Q: With `C/C(=N\NC(=O)c1ccccc1O)c1ccc(Br)s1` as the molecule, how does the Potency read?
A: Its Potency is inconclusive: 0.282 µM [activator, full curve, poor fit].

Q: With `Cc1cc(OC(=O)c2ccco2)c2c3c(c(=O)oc2c1)CCCC3` as the molecule, how does the Potency read?
A: The Potency was inconclusive: 25.1 µM [inhibitor, single point].

Q: For `Cc1ccccc1-n1c(/C=C/c2ccc(O)cc2)nc2ccccc2c1=O`, which Potency is on record?
A: Its Potency is inconclusive: 25.1 µM [inhibitor, single point].

Q: Which Potency does the source give for `COc1ccc(N2CCN(C(=O)CCCn3nnnc3CN3CCOCC3)C(C)C2)cc1` (stereo not drawn) here?
A: Its Potency is “inactive”.

Q: For `CC(=O)N1CCc2c(sc(NC(=O)CS(=O)(=O)c3ccc(F)cc3)c2C#N)C1`, which Potency is on record?
A: Its Potency is inconclusive: 1.26 µM [activator, single point].

Q: With `COc1cc(CNCc2ccccc2)c(Br)cc1OC1CCCC1` as the molecule, how does the Potency read?
A: Its Potency is inconclusive: 35.5 µM [inhibitor, single point].

Q: For `CCOC(=O)c1sc2nc(SCC#N)n(CC3CCCO3)c(=O)c2c1C` (stereo not drawn), which Potency is on record?
A: Its Potency is inconclusive: 0.058 µM [inhibitor, full curve, poor fit].

Q: For `CC(C)n1cc(-c2nc(C(=O)NN)cs2)c(=O)n(Cc2ccccc2)c1=O`, which Potency is on record?
A: Its Potency is “inactive”.

Q: With `COc1ccc(/C=N/NC(=O)c2c(-c3ccccc3)noc2C)cc1` as the molecule, how does the Potency read?
A: Its Potency is inconclusive: 10 µM [inhibitor, partial curve].

Q: For `CC1CC(C)CN(S(=O)(=O)c2ccc(NN)nc2)C1` (stereo not drawn), which Potency is on record?
A: The Potency was “inactive”.

Q: For `COc1ccccc1NC(=O)c1cnc(SCC(=O)NCC2CCCO2)n(C)c1=O` (stereo not drawn), which Potency is on record?
A: The Potency was inconclusive: 35.5 µM [inhibitor, single point].

Q: For `COc1ccccc1C(=O)NNC1=NS(=O)(=O)c2ccccc21`, which Potency is on record?
A: Its Potency is inconclusive: 31.6 µM [activator, single point].

Q: For `COc1ccc(-c2cn3cc(C)ccc3n2)cc1OC`, which Potency is on record?
A: Its Potency is inconclusive: 18.3 µM [inhibitor, single point].

Q: Which Potency does the source give for `COCCCn1c(=O)c2ccccc2n(CC(=O)N2CCCc3ccccc32)c1=O` here?
A: The Potency was inconclusive: 22.4 µM [inhibitor, partial curve, poor fit].

Q: Which Potency does the source give for `CCC(=O)N(Cc1cc2ccccc2[nH]c1=O)c1ccc(OC)cc1` here?
A: Its Potency is inconclusive: 6.31 µM [inhibitor, single point].

Q: For `CCOc1ccc(NC(=O)CC2C(=O)N(C)C(=S)N2Cc2ccc3c(c2)OCO3)cc1` (stereo not drawn), which Potency is on record?
A: Its Potency is inconclusive: 20 µM [inhibitor, single point].

Q: For `CCOc1ccc(N2CC(NC(=O)CCc3ccccc3)CC2=O)cc1` (stereo not drawn), which Potency is on record?
A: The Potency was “inactive”.

Q: With `O=C(NN1CCOCC1)NC12CC3CC(CC(C3)C1)C2` as the molecule, how does the Potency read?
A: The Potency was inconclusive: 5.01 µM [inhibitor, single point].

Q: With `COc1ccccc1CNC(=S)NC1CCCCC1` as the molecule, how does the Potency read?
A: Its Potency is active: 8.91 µM.

Q: For `NC(N)=NOCC[C@H](N)C(=O)O`, which Potency is on record?
A: The Potency was inconclusive: 0.651 µM [inhibitor, full curve, poor fit].

Q: With `CCOC(=O)N1CCN(C(=O)C(C)NC(=O)c2ccco2)CC1` (stereo not drawn) as the molecule, how does the Potency read?
A: The Potency was inconclusive: 17.8 µM [inhibitor, single point].

Q: Which Potency does the source give for `Cc1ccc(C(=O)NC2CCSC2=O)cc1` (stereo not drawn) here?
A: The Potency was “inactive”.

Q: With `O=C(OCc1ccccc1)N1CCOCCOCCN(C(=O)OCc2ccccc2)CCOCCOCC1` as the molecule, how does the Potency read?
A: The Potency was inconclusive: 8.2 µM [inhibitor, partial curve, poor fit].

Q: With `CCCNC(=O)c1c(N)n(-c2ccc3c(c2)OCO3)c2nc3ccccc3nc12` as the molecule, how does the Potency read?
A: The Potency was “inactive”.

Q: Which Potency does the source give for `Cc1ccc(CNC(=O)CCCCCn2c(=O)[nH]c3ccccc3c2=O)cc1` here?
A: Its Potency is inconclusive: 2.82 µM [inhibitor, partial curve, poor fit].

Q: For `Cc1ccc(-c2nn3nnnc3c3ccccc23)cc1C`, which Potency is on record?
A: The Potency was inconclusive: 0.0291 µM [inhibitor, full curve, poor fit].

Q: With `Cc1ccc(C)c(N2CCN(C(=O)c3ccc(NC(=O)c4nsc5ccccc45)cc3)CC2)c1` as the molecule, how does the Potency read?
A: The Potency was “inactive”.

Q: Which Potency does the source give for `CCc1ccccc1NC(=O)Nc1c[nH]c(=O)[nH]c1=O` here?
A: The Potency was inconclusive: 10 µM [activator, partial curve, poor fit].

Q: With `COc1cc(/C=N/N=C/c2cc(OC)c(O)c(OC)c2)cc(OC)c1O` as the molecule, how does the Potency read?
A: The Potency was “inactive”.
